# Laboratory results taken from the supplement of paper PMC8728848.
# Some of the results follow.
# Legend:
# Experiment in all cases: glycan array binding signal (z-score within array); higher = stronger binding
# Conditions in all cases: glycan notation: IUPAC condensed, linker removed
# Fuc(a1-2)Gal = molecular target: Fuc(a1-2)Gal
# Procedure, shortened: (§1)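 Glycan array binding is given as a within-array Z-score, which can be read as non-binding when negative. The arrays, 3228 of them, came from the Consortium for Functional Glycomics database and were retained only where the protein sequence was available. Z-scores were averaged across arrays of the same protein sequence at different concentrations or buffers and across linkers.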
# Fuc(a1-2)Gal(b1-3)GalNAc = molecular target: Fuc(a1-2)Gal(b1-3)GalNAc
# Procedure, shortened: as §1
# [1] = molecular target: Fuc(a1-2)Gal(b1-3)GalNAc(a1-3)[Fuc(a1-2)]Gal(b1-4)Glc
# Procedure, shortened: as §1
# [2] = molecular target: Fuc(a1-2)Gal(b1-3)GalNAc(a1-3)[Fuc(a1-2)]Gal(b1-4)GlcNAc
# Procedure, shortened: as §1
# [3] = molecular target: Fuc(a1-2)Gal(b1-3)GalNAc(b1-3)Gal
# Procedure, shortened: as §1
# [4] = molecular target: Fuc(a1-2)Gal(b1-3)GalNAc(b1-3)Gal(a1-4)Gal(b1-4)Glc
# Procedure, shortened: as §1
# [5] = molecular target: Fuc(a1-2)Gal(b1-3)GalNAc(b1-4)[Neu5Ac(a2-3)]Gal(b1-4)Glc
# Procedure, shortened: as §1
# Fuc(a1-2)Gal(b1-3)GlcNAc = molecular target: Fuc(a1-2)Gal(b1-3)GlcNAc
# Procedure, shortened: as §1
# [6] = molecular target: Fuc(a1-2)Gal(b1-3)GlcNAc(b1-2)Man(a1-3)[Fuc(a1-2)Gal(b1-3)GlcNAc(b1-2)Man(a1-6)]Man(b1-4)GlcNAc(b1-4)GlcNAc
# Procedure, shortened: as §1
# [7] = molecular target: Fuc(a1-2)Gal(b1-3)GlcNAc(b1-2)Man(a1-3)[Fuc(a1-2)Gal(b1-3)GlcNAc(b1-2)Man(a1-6)]Man(b1-4)GlcNAc(b1-4)[Fuc(a1-6)]GlcNAc
# Procedure, shortened: as §1
# [8] = molecular target: Fuc(a1-2)Gal(b1-3)GlcNAc(b1-3)Gal(b1-4)Glc
# Procedure, shortened: as §1
# [9] = molecular target: Fuc(a1-2)Gal(b1-3)GlcNAc(b1-3)GalNAc
# Procedure, shortened: as §1
# [10] = molecular target: Fuc(a1-2)Gal(b1-3)GlcNAc(b1-3)[Fuc(a1-2)Gal(b1-3)GlcNAc(b1-6)]GalNAc
# Procedure, shortened: as §1
# [11] = molecular target: Fuc(a1-2)Gal(b1-3)GlcNAc(b1-3)[Gal(b1-4)GlcNAc(b1-6)]Gal(b1-4)Glc
# Procedure, shortened: as §1
# [12] = molecular target: Fuc(a1-2)Gal(b1-3)GlcNAc(b1-3)[Neu5Ac(a2-6)Gal(b1-4)GlcNAc(b1-6)]Gal(b1-4)Glc
# Procedure, shortened: as §1
# [13] = molecular target: Fuc(a1-2)Gal(b1-3)GlcNAc6S
# Procedure, shortened: as §1
# [14] = molecular target: Fuc(a1-2)Gal(b1-3)[Fuc(a1-4)]GlcNAc
# Procedure, shortened: as §1
# [15] = molecular target: Fuc(a1-2)Gal(b1-3)[Fuc(a1-4)]GlcNAc(b1-2)Man(a1-3)[Fuc(a1-2)Gal(b1-3)[Fuc(a1-4)]GlcNAc(b1-2)Man(a1-3)]Man(b1-4)GlcNAc(b1-4)GlcNAc
# Procedure, shortened: as §1
# [16] = molecular target: Fuc(a1-2)Gal(b1-3)[Fuc(a1-4)]GlcNAc(b1-2)Man(a1-3)[Fuc(a1-2)Gal(b1-3)[Fuc(a1-4)]GlcNAc(b1-2)Man(a1-6)]Man(b1-4)GlcNAc(b1-4)[Fuc(a1-6)]GlcNAc(b1-4)[Fuc(a1-6)]GlcNAc
# Procedure, shortened: as §1
# [17] = molecular target: Fuc(a1-2)Gal(b1-3)[Fuc(a1-4)]GlcNAc(b1-3)[Fuc(a1-3)[Gal(b1-4)]GlcNAc(b1-6)]Gal(b1-4)Glc
# Procedure, shortened: as §1
# [18] = molecular target: Fuc(a1-2)Gal(b1-3)[Fuc(a1-4)]GlcNAc(b1-3)[Gal(b1-4)GlcNAc(b1-6)]Gal(b1-4)Glc
# Procedure, shortened: as §1
# Fuc(a1-2)Gal(b1-4)Glc = molecular target: Fuc(a1-2)Gal(b1-4)Glc
# Procedure, shortened: as §1
# Fuc(a1-2)Gal(b1-4)Glc6S = molecular target: Fuc(a1-2)Gal(b1-4)Glc6S
# Procedure, shortened: as §1
# Fuc(a1-2)Gal(b1-4)GlcNAc = molecular target: Fuc(a1-2)Gal(b1-4)GlcNAc
# Procedure, shortened: as §1
# [19] = molecular target: Fuc(a1-2)Gal(b1-4)GlcNAc(b1-2)Man
# Procedure, shortened: as §1
# [20] = molecular target: Fuc(a1-2)Gal(b1-4)GlcNAc(b1-2)Man(a1-3)[Fuc(a1-2)Gal(b1-4)GlcNAc(b1-2)Man(a1-6)]Man(b1-4)GlcNAc(b1-4)GlcNAc
# Procedure, shortened: as §1
# [21] = molecular target: Fuc(a1-2)Gal(b1-4)GlcNAc(b1-2)Man(a1-3)[Fuc(a1-2)Gal(b1-4)GlcNAc(b1-2)Man(a1-6)]Man(b1-4)GlcNAc(b1-4)[Fuc(a1-6)]GlcNAc
# Procedure, shortened: as §1
# [22] = molecular target: Fuc(a1-2)Gal(b1-4)GlcNAc(b1-2)[Fuc(a1-2)Gal(b1-4)GlcNAc(b1-4)]Man(a1-3)[Fuc(a1-2)Gal(b1-4)GlcNAc(b1-2)Man(a1-6)]Man(b1-4)GlcNAc(b1-4)GlcNAc
# Procedure, shortened: as §1
# [23] = molecular target: Fuc(a1-2)Gal(b1-4)GlcNAc(b1-3)Gal(b1-4)GlcNAc
# Procedure, shortened: as §1
# [24] = molecular target: Fuc(a1-2)Gal(b1-4)GlcNAc(b1-3)Gal(b1-4)GlcNAc(b1-2)Man(a1-3)[Fuc(a1-2)Gal(b1-4)GlcNAc(b1-3)Gal(b1-4)GlcNAc(b1-2)Man(a1-6)]Man(b1-4)GlcNAc(b1-4)GlcNAc
# Procedure, shortened: as §1
# [25] = molecular target: Fuc(a1-2)Gal(b1-4)GlcNAc(b1-3)Gal(b1-4)GlcNAc(b1-3)Gal(b1-4)GlcNAc
# Procedure, shortened: as §1
# [26] = molecular target: Fuc(a1-2)Gal(b1-4)GlcNAc(b1-3)GalNAc
# Procedure, shortened: as §1
# [27] = molecular target: Fuc(a1-2)Gal(b1-4)GlcNAc(b1-3)[Fuc(a1-2)Gal(b1-4)GlcNAc(b1-6)]GalNAc
# Procedure, shortened: as §1
# [28] = molecular target: Fuc(a1-2)Gal(b1-4)GlcNAc(b1-3)[Fuc(a1-3)[Gal(b1-4)]GlcNAc(b1-6)]Gal(b1-4)Glc
# Procedure, shortened: as §1
# [29] = molecular target: Fuc(a1-2)Gal(b1-4)GlcNAc(b1-6)GalNAc
# Procedure, shortened: as §1
# [30] = molecular target: Fuc(a1-2)Gal(b1-4)GlcNAc6S
# Procedure, shortened: as §1
# [31] = molecular target: Fuc(a1-2)Gal(b1-4)[Fuc(a1-3)]GlcNAc
# Procedure, shortened: as §1
binder,measurement,setting,value
PX9961K-bvu-480-28-480 (Bacteroides vulgatus) (protein) NKIPTTMAFRTVTDVDNAVNGLYDLMSGSGYYGAAMFAYGDMKGDDMQSSEESGVCNTCYMFNHRPNSLNAGSLWGRPFYILREAWNILNAIAEGKIESGDEKKLNALKGETMAVIALCQFDLTRCFGYPYTKDKGASLGAPLIDHLVGTYENPPRSTVAQAYDFIIETLEEAVTLMSEEKNNGRMNKYAARALLARIYLYHDDNRKAFDLADQLIKDADTSGSYALYPHEKYVAAWSVEAKFGSESFFEIANSVDDTPGRDSWGYLLNWYGYQKGFVTQKYAEQMLADPGDVRGHLLEENKYAGKTVWWLYKLRGTDLKTAPLECNNVVLRLSEVYLIAAEAGCKLGGDAAVQGLGYLNEIVKRGNPDNEVTMADYTLDRVLDERSKELVGEGHRFFDLLRNGKTIVRKGGYHLPSVDEEVDWDFYKCVLPIPEDQFIFSPEMEQNPGYPKN,glycan array binding signal (z-score),Fuc(a1-2)Gal,-0.335
same,glycan array binding signal (z-score),Fuc(a1-2)Gal(b1-3)GalNAc,-0.167
same,glycan array binding signal (z-score),[1],0.011
same,glycan array binding signal (z-score),[2],-0.747
same,glycan array binding signal (z-score),[3],-0.419
same,glycan array binding signal (z-score),[4],0.467
same,glycan array binding signal (z-score),[5],-0.817
same,glycan array binding signal (z-score),Fuc(a1-2)Gal(b1-3)GlcNAc,-0.667
same,glycan array binding signal (z-score),[6],-0.169
same,glycan array binding signal (z-score),[7],0.147
same,glycan array binding signal (z-score),[8],-0.662
same,glycan array binding signal (z-score),[9],-0.676
same,glycan array binding signal (z-score),[10],0.119
same,glycan array binding signal (z-score),[11],-0.551
same,glycan array binding signal (z-score),[12],-0.084
same,glycan array binding signal (z-score),[13],-0.581
same,glycan array binding signal (z-score),[14],-0.319
same,glycan array binding signal (z-score),[15],1.11
same,glycan array binding signal (z-score),[16],-0.657
same,glycan array binding signal (z-score),[17],-0.282
same,glycan array binding signal (z-score),[18],0.544
same,glycan array binding signal (z-score),Fuc(a1-2)Gal(b1-4)Glc,-0.656
same,glycan array binding signal (z-score),Fuc(a1-2)Gal(b1-4)Glc6S,0.129
same,glycan array binding signal (z-score),Fuc(a1-2)Gal(b1-4)GlcNAc,0.174
same,glycan array binding signal (z-score),[19],-0.528
same,glycan array binding signal (z-score),[20],-0.758
same,glycan array binding signal (z-score),[21],0.247
same,glycan array binding signal (z-score),[22],0.463
same,glycan array binding signal (z-score),[23],-0.853
same,glycan array binding signal (z-score),[24],0.939
same,glycan array binding signal (z-score),[25],0.271
same,glycan array binding signal (z-score),[26],-0.27
same,glycan array binding signal (z-score),[27],0.582
same,glycan array binding signal (z-score),[28],-0.486
same,glycan array binding signal (z-score),[29],0.033
same,glycan array binding signal (z-score),[30],0.071
same,glycan array binding signal (z-score),[31],-0.448

# 3 records drawn at random from those above:
binder,measurement,setting,value
PX9961K-bvu-480-28-480 (Bacteroides vulgatus) (protein) NKIPTTMAFRTVTDVDNAVNGLYDLMSGSGYYGAAMFAYGDMKGDDMQSSEESGVCNTCYMFNHRPNSLNAGSLWGRPFYILREAWNILNAIAEGKIESGDEKKLNALKGETMAVIALCQFDLTRCFGYPYTKDKGASLGAPLIDHLVGTYENPPRSTVAQAYDFIIETLEEAVTLMSEEKNNGRMNKYAARALLARIYLYHDDNRKAFDLADQLIKDADTSGSYALYPHEKYVAAWSVEAKFGSESFFEIANSVDDTPGRDSWGYLLNWYGYQKGFVTQKYAEQMLADPGDVRGHLLEENKYAGKTVWWLYKLRGTDLKTAPLECNNVVLRLSEVYLIAAEAGCKLGGDAAVQGLGYLNEIVKRGNPDNEVTMADYTLDRVLDERSKELVGEGHRFFDLLRNGKTIVRKGGYHLPSVDEEVDWDFYKCVLPIPEDQFIFSPEMEQNPGYPKN,glycan array binding signal (z-score),[3],-0.419
same,glycan array binding signal (z-score),[27],0.582
same,glycan array binding signal (z-score),[2],-0.747
